The target in assay [1] is T1, IL-17F chain of the human IL-17A/F heterodimer (human) (UniProt Q96PD4).
T1 sequence (chain, N-linked glycosylation at Asn83 (seen in the crystal)): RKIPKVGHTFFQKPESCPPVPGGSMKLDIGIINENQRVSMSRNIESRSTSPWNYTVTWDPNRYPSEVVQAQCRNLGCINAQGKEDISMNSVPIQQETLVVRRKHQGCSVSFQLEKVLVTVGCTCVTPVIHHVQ
Put plainly: crystal structure; free IL-17A/F heterodimer (chains co-expressed, purified as the heterodimer); tetragonal crystals, 0.1 M Bis-Tris-propane pH 7.0, 0.5 M succinic acid, 20 °C; 2.3 Å; both purified.

Protein sequences, listed by entry. Tags and fused reporters are not part of them. Residues count along the entry.
UniProt Q96F46, residues 33-320: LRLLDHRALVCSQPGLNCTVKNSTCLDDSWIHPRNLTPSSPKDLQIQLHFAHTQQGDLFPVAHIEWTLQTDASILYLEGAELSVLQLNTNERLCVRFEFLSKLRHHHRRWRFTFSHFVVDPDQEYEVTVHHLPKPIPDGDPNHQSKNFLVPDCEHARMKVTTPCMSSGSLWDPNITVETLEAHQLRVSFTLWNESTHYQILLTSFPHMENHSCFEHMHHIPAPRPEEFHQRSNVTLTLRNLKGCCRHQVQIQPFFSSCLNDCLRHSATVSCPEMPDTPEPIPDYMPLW
UniProt Q16552, residues 24-155: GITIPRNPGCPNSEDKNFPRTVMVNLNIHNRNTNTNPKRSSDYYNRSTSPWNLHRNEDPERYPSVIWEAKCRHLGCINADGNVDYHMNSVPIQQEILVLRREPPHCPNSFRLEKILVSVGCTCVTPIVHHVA

The target of assay [2] is T2, human IL-17RC extracellular domain (human) (UniProt Q8NAC3).
T2 sequence: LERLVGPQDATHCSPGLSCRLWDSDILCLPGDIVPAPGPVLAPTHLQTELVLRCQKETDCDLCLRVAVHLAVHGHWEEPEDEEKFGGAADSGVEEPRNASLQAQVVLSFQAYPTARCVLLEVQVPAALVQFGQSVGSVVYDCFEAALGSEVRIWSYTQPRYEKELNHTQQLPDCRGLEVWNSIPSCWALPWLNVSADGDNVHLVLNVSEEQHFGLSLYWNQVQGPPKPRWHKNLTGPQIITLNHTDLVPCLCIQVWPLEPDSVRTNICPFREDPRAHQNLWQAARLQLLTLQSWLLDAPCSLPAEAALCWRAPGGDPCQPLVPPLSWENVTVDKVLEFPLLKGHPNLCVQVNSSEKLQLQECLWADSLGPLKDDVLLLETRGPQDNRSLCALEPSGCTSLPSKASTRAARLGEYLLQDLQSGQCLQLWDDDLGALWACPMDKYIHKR
Put plainly: SPR; Biacore 8K; IL-17RC ECD amine-coupled on a CM4 chip (about 500 RU); cytokines as analytes in PBS pH 7.4, 3 mM EDTA, 0.05% Tween20; 20 °C, 30 µl/min; 1:1 Langmuir model or steady-state analysis; both purified.

Assay [3] deals with human IL-17RA extracellular domain (human) (UniProt Q96F46). Put plainly: SPR; Biacore 8K; biotinylated IL-17RA ECD immobilised on a streptavidin chip (about 500 RU); cytokines as analytes in PBS pH 7.4, 3 mM EDTA, 0.05% Tween20; 20 °C, 30 µl/min; 1:1 Langmuir model or steady-state analysis; both purified.

Results are given in words; binding and its absence hold for the method and conditions named. Some results given as binding are weak or reduced against the parent protein; the word gives no strength.

The record followed here is paper PMC5566378.

“IL-17A chain of the human IL-17A/F heterodimer (from UniProt Q16552 24-155)”: in assay [1], the binding result is listed as “binds”. “human IL-17A homodimer (from UniProt Q16552 24-155) (ligand)”: the binding entry in assay [2] and in assay [3] was “binds” each time.
